Library screen at single concentrations

By UniProt entry, the sequences of proteins in these tests, tags left out. Residues count along the entry.
UniProt Q8IDJ8, 1-583: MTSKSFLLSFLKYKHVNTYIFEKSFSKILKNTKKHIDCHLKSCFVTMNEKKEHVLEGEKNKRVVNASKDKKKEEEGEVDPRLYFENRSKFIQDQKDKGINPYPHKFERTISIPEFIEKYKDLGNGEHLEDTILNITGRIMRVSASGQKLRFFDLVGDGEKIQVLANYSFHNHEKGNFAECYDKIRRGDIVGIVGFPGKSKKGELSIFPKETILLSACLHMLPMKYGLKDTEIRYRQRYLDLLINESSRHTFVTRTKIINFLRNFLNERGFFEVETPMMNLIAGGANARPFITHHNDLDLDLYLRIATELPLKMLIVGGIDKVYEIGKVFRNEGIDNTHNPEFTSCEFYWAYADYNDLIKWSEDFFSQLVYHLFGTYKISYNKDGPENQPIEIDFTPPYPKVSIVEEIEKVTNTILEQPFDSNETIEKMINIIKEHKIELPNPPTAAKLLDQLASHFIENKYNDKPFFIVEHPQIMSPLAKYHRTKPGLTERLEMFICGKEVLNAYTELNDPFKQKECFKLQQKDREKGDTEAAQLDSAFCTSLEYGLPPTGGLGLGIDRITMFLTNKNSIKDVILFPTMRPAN

Source: ChEMBL document CHEMBL3988442, “University of Dundee, Small-Polar-MMV Screening Library” (2021).

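Enzyme assay of the cytosolic lysyl-tRNA synthetase in 384-well plates, read by luminescence. Target: Lysine-tRNA ligase, Plasmodium falciparum 3D7 (UniProt Q8IDJ8). Tested at 30 µM. Direction is inferred from only a few compounds that gave an IC50; most scored high, so higher reads as stronger inhibition. About 69,000 compounds were tested under these conditions; 0.071% (about 49) showed 50% or more at least once.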

The filed quantity is “Percent Effect” (%).
The record does not define 0% and 100%; most values in the screen are far below 50% and negative numbers occur (in some assays of this library far below -100).
This is an unselected part of the compounds tested.

compound: CCN1C(=O)C[C@@H]2[C@@H]1CCN2S(=O)(=O)c1ccccc1
Percent Effect: 4.841

compound: Cc1nc(CCN)cc(N2CCC(O)(c3ccc(Cl)cc3)CC2)n1
Percent Effect: -3.422

compound: FC(F)(F)Cn1ccnc1CNCCn1cccn1
Percent Effect: 3.497

compound: CCCN1CCC(CC(=O)N(C)CC(=O)c2ccc(O)cc2)CC1
Percent Effect: 3.668

compound: CCc1ncc(C(=O)N2CCN(Cc3ncccc3C)CC2)cn1
Percent Effect: 9.623

compound: CCCN1CCc2c(C(=O)N(C)Cc3ccccn3)nn(C)c2C1
Percent Effect: -1.297

compound: Cc1nc(C)n(CC2CCCN(CC3CCCCC3)C2)n1 (stereo not drawn)
Percent Effect: 1.951

compound: Cc1cc(C)n(CC2CCCN2C(=O)CCCNc2ncccn2)n1 (stereo not drawn)
Percent Effect: -1.831

compound: Cc1cc(CN2CC[C@H]3C[C@H](c4nc(C5CC5)cs4)O[C@@H]3C2)no1
Percent Effect: 4.083

compound: CC(=O)N1CC[C@H]2OCC[C@@H](C(=O)NCc3ccco3)[C@@H]2C1
Percent Effect: 3.694

compound: CN(Cc1n[nH]c2c1CCC2)C(=O)c1cccc(CCC(C)(C)O)c1
Percent Effect: 12.08

compound: CN(CCCc1cnn(C)c1)C(=O)C1CCOC1 (stereo not drawn)
Percent Effect: -5.112

compound: CC(C)NC(=O)C(C(C)C)n1cnc2cc(F)c(F)cc21 (stereo not drawn)
Percent Effect: 1.24

compound: CS(=O)(=O)NCCNc1ncnc2cccc(F)c12
Percent Effect: 6.594

compound: CC(NC(=O)CSCC(=O)Nc1ccccc1)c1ccccc1 (stereo not drawn)
Percent Effect: 3.327

compound: Cc1nc(-c2nc(C(=O)N(C)C)c3ccccn23)cn1C(C)C
Percent Effect: 2.873

compound: c1ccc(CN2CCC(c3nccnc3-n3ccnc3)CC2)cc1
Percent Effect: 2.518

compound: Cc1noc(C)c1CN1C[C@@H]2COC[C@@H](CC(=O)N3CCCCO3)[C@@H]2C1
Percent Effect: 2.306

compound: Cc1cc(NC(=O)Cc2ccccc2O)cnc1N1CCCCC1
Percent Effect: -2.663

compound: COCCCNC(=O)NCc1ccc(C)cc1
Percent Effect: 8.493

compound: Cc1nc(-c2ccsc2)ccc1C(=O)NCCN1CCN(C)CC1
Percent Effect: 0.1489

compound: CCN(Cc1nc2c(cnn2C)c(=O)[nH]1)Cc1ccccc1Cl
Percent Effect: -0.4606

compound: Cc1cc(C(O)CCNS(=O)(=O)c2ccc(Cl)s2)c(C)o1 (stereo not drawn)
Percent Effect: 0.5773

compound: COc1cccc(CN2CCc3nc4ccsc4c(=O)n3CC2)c1
Percent Effect: 0.5096

compound: Cc1noc(C)c1CN(C)c1ncnc2onc(C)c12
Percent Effect: 4.325

compound: c1ccc(NC[C@@H]2CCC[C@@H]3CN(Cc4csnn4)C[C@@H]32)nc1
Percent Effect: 2.706

compound: Cc1cccc(-n2ncc(C(=O)N3CCn4c(C)nnc4C3)c2C)c1
Percent Effect: 4.692

compound: CNC(=O)CN(C)c1cncc(OCC(C)C)n1
Percent Effect: 5.826

compound: Cc1cccc(C(=O)N2C[C@@H]3[C@H](CC(=O)NC(C)C)[C@@H]3C2)n1
Percent Effect: 6.814

compound: NC(=O)C1CCN(CC(=O)NCCc2c(F)cccc2F)CC1
Percent Effect: 0.5597

compound: COc1ccc(CNC[C@@]2(COc3cccnc3)C[C@@H](O)[C@@H](O)C2)cc1
Percent Effect: -3.38

compound: COc1ccc(-c2c(C)nn3c(=N)c(C#N)n[nH]c23)cc1OC
Percent Effect: 0.3623

compound: Nc1nc(N2CCCCCC2)ncc1C(=O)NCc1ccc(F)c(Cl)c1
Percent Effect: -3.759

compound: CCSCCNC(=O)c1ccc(S(=O)(=O)N2C[C@@H]3C[C@H]2CN3)cc1
Percent Effect: 2.08

compound: O=C(O)c1ccccc1-n1cnc(CN2CCc3ccccc32)c1
Percent Effect: 1.359

compound: Cn1cc(CN2CCCC23CCN(C(=O)c2ccsc2)CC3)cn1
Percent Effect: 7.289

compound: CC(C)N1CCOCC2(CN(Cc3ccccn3)CCO2)C1 (stereo not drawn)
Percent Effect: -1.427

compound: CC(C)c1nc(C2CCCN(C(=O)c3nccn4ccnc34)C2)no1 (stereo not drawn)
Percent Effect: 0.1206

compound: CCCOC1CCCN(C(=O)c2ccnnc2)C1 (stereo not drawn)
Percent Effect: 1.099

compound: CN1C(=O)CO[C@H](c2ccc(NC(=O)NC(C)(C)C)cc2)[C@H]1CO
Percent Effect: 3.329

compound: Cn1cc(NC(=O)CNC(=O)N2CCN(c3ccccc3)CC2)cn1
Percent Effect: -1.257

compound: CC(C)NS(=O)(=O)c1ccccc1CNCc1cccc(O)c1
Percent Effect: 2.639

compound: Cc1cnn(C2CCCN(C(=O)c3ccc(N(C)C)nn3)C2)c1 (stereo not drawn)
Percent Effect: 0.4521

compound: CN1CCN(c2cc(NC(=O)c3cnccn3)ncn2)CC1
Percent Effect: -1.46

compound: O=C(C1CCOCC1)N1CCC2(CCNCC2)C1
Percent Effect: 3.403

compound: O=C(CC1CN(Cc2ccccc2)CCO1)NCCN1CCOCC1 (stereo not drawn)
Percent Effect: -1.197

compound: CC/C=C(/C)C(=O)N1CSCC1C(=O)N(C)CCc1ccncc1 (stereo not drawn)
Percent Effect: 0.224

compound: O=c1n(CCSCc2ccccc2Cl)nc2ccccn12
Percent Effect: -1.289

compound: O=C1COC2(CCN(Cc3ccoc3)CC2)CN1c1ccsc1
Percent Effect: 2.729

compound: CC1CN(C)CCN1C(=O)c1cnc2c(cnn2C2CCCC2)c1 (stereo not drawn)
Percent Effect: -0.4562

3 of the entries, repeated:

* COc1ccc(CNC[C@@]2(COc3cccnc3)C[C@@H](O)[C@@H](O)C2)cc1 | -3.38%
* CN(CCCc1cnn(C)c1)C(=O)C1CCOC1 (stereo not drawn) | -5.112%
* Cc1nc(CCN)cc(N2CCC(O)(c3ccc(Cl)cc3)CC2)n1 | -3.422%